{"sequences": {"note": "By UniProt entry, the sequences of proteins in these tests, tags left out. Where a name states a change or a piece, a line headed by the entry shows the natural chain unless it says otherwise.", "UniProt Q9NYP9": "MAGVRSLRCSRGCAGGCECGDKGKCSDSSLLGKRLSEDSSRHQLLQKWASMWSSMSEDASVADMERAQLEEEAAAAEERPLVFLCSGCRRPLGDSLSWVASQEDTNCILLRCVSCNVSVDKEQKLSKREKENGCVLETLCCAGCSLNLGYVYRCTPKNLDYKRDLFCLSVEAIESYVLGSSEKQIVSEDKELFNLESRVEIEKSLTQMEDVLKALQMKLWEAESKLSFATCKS", "UniProt Q9UBD5": "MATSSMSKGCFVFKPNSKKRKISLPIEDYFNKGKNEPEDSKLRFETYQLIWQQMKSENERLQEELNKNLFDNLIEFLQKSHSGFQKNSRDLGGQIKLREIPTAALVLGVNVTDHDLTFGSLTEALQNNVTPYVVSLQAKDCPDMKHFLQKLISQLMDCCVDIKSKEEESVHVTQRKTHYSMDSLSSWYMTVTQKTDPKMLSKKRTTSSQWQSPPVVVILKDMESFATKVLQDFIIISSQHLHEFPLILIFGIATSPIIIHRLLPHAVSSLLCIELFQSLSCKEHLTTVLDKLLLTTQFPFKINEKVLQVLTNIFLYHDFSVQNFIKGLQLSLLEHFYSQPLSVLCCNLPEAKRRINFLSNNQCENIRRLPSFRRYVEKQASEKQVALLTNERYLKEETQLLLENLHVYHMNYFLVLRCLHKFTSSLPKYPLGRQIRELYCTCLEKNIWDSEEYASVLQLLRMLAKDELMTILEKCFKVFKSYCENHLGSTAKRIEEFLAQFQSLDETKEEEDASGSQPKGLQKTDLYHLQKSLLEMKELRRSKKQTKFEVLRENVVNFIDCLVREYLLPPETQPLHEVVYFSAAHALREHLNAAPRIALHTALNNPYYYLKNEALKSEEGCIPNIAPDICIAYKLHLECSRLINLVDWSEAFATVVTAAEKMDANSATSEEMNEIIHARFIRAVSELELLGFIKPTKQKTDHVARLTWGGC", "UniProt Q9NZT2": "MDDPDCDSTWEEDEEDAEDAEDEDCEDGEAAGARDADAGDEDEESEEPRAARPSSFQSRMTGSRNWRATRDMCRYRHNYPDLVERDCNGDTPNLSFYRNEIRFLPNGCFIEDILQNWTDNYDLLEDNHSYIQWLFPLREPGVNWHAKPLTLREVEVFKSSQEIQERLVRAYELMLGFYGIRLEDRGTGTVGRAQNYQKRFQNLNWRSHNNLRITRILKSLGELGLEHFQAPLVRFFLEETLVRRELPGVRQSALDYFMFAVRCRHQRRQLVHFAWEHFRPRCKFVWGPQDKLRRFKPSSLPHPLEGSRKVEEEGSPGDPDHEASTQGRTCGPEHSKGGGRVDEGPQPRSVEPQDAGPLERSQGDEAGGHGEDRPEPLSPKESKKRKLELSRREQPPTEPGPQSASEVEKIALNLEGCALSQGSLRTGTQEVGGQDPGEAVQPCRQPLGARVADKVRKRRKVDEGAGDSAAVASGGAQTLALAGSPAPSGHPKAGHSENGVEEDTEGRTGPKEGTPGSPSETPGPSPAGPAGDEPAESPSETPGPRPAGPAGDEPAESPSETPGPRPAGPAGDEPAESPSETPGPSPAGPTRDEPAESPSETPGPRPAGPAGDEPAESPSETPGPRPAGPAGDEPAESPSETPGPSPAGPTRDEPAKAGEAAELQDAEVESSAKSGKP", "UniProt Q9UGV2": "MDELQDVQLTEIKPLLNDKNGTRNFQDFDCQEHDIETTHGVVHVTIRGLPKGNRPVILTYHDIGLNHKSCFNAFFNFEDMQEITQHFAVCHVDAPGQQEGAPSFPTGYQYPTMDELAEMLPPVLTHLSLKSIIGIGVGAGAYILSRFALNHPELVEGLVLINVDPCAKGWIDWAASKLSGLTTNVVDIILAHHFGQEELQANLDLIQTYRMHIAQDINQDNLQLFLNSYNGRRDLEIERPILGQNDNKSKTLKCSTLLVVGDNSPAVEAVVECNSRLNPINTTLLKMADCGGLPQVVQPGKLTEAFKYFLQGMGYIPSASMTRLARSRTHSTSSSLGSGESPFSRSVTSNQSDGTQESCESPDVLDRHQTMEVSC", "UniProt Q9NXA8": "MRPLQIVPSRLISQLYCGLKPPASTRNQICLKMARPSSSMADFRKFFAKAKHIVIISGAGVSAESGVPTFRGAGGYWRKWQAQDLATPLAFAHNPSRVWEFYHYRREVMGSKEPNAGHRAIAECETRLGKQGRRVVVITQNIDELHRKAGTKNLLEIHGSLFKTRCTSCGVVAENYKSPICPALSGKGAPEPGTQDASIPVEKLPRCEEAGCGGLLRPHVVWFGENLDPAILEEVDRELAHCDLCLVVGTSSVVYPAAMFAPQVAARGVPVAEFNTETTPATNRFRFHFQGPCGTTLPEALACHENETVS", "UniProt Q9NX14, whole entry": "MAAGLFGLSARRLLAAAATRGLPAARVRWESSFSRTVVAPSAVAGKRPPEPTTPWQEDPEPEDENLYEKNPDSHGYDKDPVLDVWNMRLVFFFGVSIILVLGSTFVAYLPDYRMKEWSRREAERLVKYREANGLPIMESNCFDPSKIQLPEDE", "UniProt Q9UBC1": "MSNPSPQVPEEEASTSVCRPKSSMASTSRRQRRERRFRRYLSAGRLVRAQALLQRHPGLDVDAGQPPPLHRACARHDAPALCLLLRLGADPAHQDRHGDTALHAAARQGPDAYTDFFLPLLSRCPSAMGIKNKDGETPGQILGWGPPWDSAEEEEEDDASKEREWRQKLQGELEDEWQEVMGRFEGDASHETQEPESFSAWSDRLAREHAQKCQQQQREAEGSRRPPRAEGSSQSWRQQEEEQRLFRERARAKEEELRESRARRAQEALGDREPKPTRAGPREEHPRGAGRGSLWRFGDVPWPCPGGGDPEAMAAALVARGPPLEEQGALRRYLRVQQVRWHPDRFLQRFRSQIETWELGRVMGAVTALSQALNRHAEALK", "UniProt Q9NVS9": "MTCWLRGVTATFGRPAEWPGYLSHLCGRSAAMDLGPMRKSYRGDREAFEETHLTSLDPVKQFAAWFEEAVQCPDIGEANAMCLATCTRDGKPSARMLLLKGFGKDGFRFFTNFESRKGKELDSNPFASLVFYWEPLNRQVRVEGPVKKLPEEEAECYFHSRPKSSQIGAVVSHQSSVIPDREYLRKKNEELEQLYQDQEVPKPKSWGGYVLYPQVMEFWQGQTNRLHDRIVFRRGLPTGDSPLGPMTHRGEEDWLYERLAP", "UniProt Q9UBB6": "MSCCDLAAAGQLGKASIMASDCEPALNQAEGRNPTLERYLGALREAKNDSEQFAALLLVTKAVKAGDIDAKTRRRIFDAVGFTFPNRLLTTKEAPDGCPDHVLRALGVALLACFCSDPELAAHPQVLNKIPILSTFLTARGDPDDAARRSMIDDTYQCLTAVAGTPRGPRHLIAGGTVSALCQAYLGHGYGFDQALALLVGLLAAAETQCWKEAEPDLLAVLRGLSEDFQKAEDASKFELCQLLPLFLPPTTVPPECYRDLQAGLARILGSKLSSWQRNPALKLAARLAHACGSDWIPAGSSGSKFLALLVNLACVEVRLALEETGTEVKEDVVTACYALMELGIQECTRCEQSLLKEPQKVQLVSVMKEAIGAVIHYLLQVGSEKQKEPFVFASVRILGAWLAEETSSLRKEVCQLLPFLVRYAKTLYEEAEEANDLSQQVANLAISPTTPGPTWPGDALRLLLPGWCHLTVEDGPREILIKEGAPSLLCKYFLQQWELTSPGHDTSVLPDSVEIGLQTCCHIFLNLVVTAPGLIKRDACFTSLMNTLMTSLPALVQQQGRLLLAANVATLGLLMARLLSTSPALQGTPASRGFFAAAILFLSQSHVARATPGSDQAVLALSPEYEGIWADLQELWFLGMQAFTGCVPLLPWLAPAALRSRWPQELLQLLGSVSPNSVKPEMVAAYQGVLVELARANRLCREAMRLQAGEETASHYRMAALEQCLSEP", "UniProt Q9UBV8": "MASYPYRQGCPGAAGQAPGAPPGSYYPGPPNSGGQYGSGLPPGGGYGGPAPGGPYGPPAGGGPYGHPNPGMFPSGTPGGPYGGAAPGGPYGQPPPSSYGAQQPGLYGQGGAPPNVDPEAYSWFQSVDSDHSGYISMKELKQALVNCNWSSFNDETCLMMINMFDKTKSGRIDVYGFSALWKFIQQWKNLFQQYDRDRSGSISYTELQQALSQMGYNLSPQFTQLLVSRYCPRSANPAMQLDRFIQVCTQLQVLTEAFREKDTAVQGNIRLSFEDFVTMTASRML", "UniProt Q9NYV4, whole entry, looked up": "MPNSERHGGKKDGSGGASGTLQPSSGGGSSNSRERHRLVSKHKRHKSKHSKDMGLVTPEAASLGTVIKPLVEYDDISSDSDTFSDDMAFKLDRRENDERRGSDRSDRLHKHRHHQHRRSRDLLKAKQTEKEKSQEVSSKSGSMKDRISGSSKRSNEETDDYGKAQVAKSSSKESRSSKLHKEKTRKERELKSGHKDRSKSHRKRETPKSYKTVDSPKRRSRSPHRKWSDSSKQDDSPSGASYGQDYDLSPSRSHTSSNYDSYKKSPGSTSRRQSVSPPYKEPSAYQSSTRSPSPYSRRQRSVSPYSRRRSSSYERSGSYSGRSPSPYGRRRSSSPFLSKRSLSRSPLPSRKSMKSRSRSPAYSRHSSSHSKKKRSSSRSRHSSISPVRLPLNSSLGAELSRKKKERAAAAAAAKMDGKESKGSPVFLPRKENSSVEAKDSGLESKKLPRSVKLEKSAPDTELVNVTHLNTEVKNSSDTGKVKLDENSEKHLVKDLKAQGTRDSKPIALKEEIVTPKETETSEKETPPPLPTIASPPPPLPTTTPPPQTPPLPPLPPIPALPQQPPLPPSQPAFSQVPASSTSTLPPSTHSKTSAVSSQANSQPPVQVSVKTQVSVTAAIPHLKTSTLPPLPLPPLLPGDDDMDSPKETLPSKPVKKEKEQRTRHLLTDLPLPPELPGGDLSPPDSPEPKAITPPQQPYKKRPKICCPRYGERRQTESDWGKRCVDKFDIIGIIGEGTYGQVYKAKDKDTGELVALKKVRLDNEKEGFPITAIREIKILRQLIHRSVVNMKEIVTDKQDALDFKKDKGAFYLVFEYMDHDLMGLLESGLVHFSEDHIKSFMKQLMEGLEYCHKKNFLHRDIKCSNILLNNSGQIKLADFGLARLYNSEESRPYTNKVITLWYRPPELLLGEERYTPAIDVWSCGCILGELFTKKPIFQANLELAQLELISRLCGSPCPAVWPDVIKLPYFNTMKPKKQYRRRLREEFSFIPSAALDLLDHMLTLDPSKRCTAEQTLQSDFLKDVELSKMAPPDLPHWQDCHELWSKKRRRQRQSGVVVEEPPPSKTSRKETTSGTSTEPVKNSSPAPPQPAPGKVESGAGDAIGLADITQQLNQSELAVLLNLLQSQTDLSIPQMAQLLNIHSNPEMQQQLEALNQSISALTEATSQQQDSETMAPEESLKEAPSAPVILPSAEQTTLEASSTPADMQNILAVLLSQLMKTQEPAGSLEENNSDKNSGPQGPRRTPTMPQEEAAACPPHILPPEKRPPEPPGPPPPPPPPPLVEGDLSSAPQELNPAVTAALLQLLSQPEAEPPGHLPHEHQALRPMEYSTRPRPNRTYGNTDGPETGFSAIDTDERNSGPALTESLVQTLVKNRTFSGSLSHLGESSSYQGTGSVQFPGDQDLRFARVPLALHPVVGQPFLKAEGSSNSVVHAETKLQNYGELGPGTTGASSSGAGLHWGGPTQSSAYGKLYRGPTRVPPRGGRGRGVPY", "UniProt Q9NVC6": "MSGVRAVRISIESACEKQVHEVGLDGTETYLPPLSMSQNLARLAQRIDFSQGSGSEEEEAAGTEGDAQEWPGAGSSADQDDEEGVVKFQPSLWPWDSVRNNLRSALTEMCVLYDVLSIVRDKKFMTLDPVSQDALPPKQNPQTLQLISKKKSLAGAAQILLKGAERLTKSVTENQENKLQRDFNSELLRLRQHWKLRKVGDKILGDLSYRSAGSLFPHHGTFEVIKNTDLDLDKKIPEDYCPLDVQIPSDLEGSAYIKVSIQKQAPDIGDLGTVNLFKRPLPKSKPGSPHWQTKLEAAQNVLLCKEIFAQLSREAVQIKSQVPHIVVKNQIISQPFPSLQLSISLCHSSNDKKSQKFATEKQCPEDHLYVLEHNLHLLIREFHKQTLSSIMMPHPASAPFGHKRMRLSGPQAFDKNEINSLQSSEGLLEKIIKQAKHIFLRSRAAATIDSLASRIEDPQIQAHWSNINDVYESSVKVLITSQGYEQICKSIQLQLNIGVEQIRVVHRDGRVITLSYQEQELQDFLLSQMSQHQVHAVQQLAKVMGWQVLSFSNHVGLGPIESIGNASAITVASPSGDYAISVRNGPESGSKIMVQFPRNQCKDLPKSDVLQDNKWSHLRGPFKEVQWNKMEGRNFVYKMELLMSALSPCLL", "UniProt Q9UHD1": "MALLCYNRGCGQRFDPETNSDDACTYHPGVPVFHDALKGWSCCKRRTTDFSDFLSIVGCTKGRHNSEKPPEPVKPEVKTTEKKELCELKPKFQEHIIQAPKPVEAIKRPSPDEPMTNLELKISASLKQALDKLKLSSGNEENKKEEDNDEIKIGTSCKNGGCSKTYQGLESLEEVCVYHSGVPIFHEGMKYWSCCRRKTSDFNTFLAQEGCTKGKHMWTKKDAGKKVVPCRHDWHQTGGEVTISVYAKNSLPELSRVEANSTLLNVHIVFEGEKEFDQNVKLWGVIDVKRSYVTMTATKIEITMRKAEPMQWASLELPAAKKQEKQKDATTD"}, "source": "the supplement of paper PMC11006884", "note": "The entries are a selection whose mix differs from that of the whole data set.", "data": [{"compound": "COC(=O)C#Cc1ccccc1 [methyl 3-phenylpropiolate]", "experiment": "log2 ratio of iodoacetamide-alkyne labeling of the cysteine site, DMSO over compound (competition); higher = stronger covalent engagement of the cysteine by the compound, active = 1 or more", "conditions": "500 µM; treatment time 1 h; system: HEK293T cell lysate", "outline": "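HEK293T lysate (2 mg/mL) was treated with DMSO or electrophile (500 µM, 1 h, ambient temperature), then iodoacetamide alkyne (1 h), clicked to sCIP-TMT reagents, pooled, trypsin-digested overnight at 37 °C, streptavidin-enriched and acid-eluted. Peptides were run on Orbitrap Eclipse LC-MS/MS with FAIMS and quantified in FragPipe. The log2 competition ratio per cysteine is mean control-channel over mean compound-channel reporter intensity. Duplicate channels and three replicates were used, and cysteines quantified in only one replicate were excluded.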", "values": [{"target": "UniProt Q9NYP9_C107", "log2 ratio of iodoacetamide-alkyne labeling": "inactive: 0.197"}, {"target": "UniProt Q9UBD5_C158", "log2 ratio of iodoacetamide-alkyne labeling": "active: 1.13"}, {"target": "OGFR C417 (UniProt Q9NZT2)", "log2 ratio of iodoacetamide-alkyne labeling": "inactive: 0.39"}, {"target": "NDRG3 C290 (UniProt Q9UGV2)", "log2 ratio of iodoacetamide-alkyne labeling": "inactive: -0.105"}, {"target": "SIRT5 C303 (UniProt Q9NXA8)", "log2 ratio of iodoacetamide-alkyne labeling": "inactive: 0.176"}, {"target": "NDUFB11 C141 (UniProt Q9NX14)", "log2 ratio of iodoacetamide-alkyne labeling": "inactive: 0.257"}, {"target": "UniProt Q9UBC1_C304", "log2 ratio of iodoacetamide-alkyne labeling": "inactive: 0.731"}, {"target": "FANCI C594 (UniProt Q9NVI1)", "log2 ratio of iodoacetamide-alkyne labeling": "inactive: 0.0765"}, {"target": "PNPO C156 (UniProt Q9NVS9)", "log2 ratio of iodoacetamide-alkyne labeling": "inactive: 0.121"}, {"target": "DNMT3B C651 (UniProt Q9UBC3)", "log2 ratio of iodoacetamide-alkyne labeling": "inactive: 0.165"}, {"target": "NCDN C98 (UniProt Q9UBB6)", "log2 ratio of iodoacetamide-alkyne labeling": "inactive: 0.32"}, {"target": "PEF1 C230 (UniProt Q9UBV8)", "log2 ratio of iodoacetamide-alkyne labeling": "inactive: 0.166"}, {"target": "UniProt Q9NYV4_C1039", "log2 ratio of iodoacetamide-alkyne labeling": "inactive: 0.794"}, {"target": "MED17 C110 (UniProt Q9NVC6)", "log2 ratio of iodoacetamide-alkyne labeling": "inactive: 0.34"}, {"target": "CHORDC1 C211 (UniProt Q9UHD1)", "log2 ratio of iodoacetamide-alkyne labeling": "inactive: 0.207"}]}]}
